Data taken from the supplement of paper PMC9233669.
This sample is rich in variants without activity.

How the values were obtained:
biotinyl-Ile-oxazolone = assay: self-aminoacylation, catalytic enhancement (BIO) (fold over background); higher = more active; k-Seq, kA / k0A0; sequences stand for … in GGGAAUGGAUCCACAUCUACGAAUUC…UUCACUGCAGACUUGACGAAGCUG
Procedure, shortened: (§1)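 Mutagenized RNA pools (0.43 μM; 21-nt variable region) were treated with 2–1250 μM of each biotinyl-aminoacyl-oxazolone. Conditions were 50 μL HEPES/NaCl/KCl/MgCl2/CaCl2 buffer, 5% acetonitrile, pH 6.9–7.0, room temperature, 90 minutes. Catalytic enhancement, the median kA relative to the uncatalyzed rate, was derived from streptavidin capture, qPCR and Illumina sequencing.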

biotinyl-Met-oxazolone = assay: self-aminoacylation, catalytic enhancement (BMO) (fold over background); higher = more active; k-Seq, kA / k0A0; sequences stand for … in GGGAAUGGAUCCACAUCUACGAAUUC…UUCACUGCAGACUUGACGAAGCUG
Procedure, shortened: as §1

biotinyl-Phe-oxazolone = assay: self-aminoacylation, catalytic enhancement (BFO) (fold over background); higher = more active; k-Seq, kA / k0A0; sequences stand for … in GGGAAUGGAUCCACAUCUACGAAUUC…UUCACUGCAGACUUGACGAAGCUG
Procedure, shortened: as §1

biotinyl-Leu-oxazolone = assay: self-aminoacylation, catalytic enhancement (BLO) (fold over background); higher = more active; k-Seq, kA / k0A0; sequences stand for … in GGGAAUGGAUCCACAUCUACGAAUUC…UUCACUGCAGACUUGACGAAGCUG
Procedure, shortened: as §1

biotinyl-Val-oxazolone = assay: self-aminoacylation, catalytic enhancement (BVO) (fold over background); higher = more active; k-Seq, kA / k0A0; sequences stand for … in GGGAAUGGAUCCACAUCUACGAAUUC…UUCACUGCAGACUUGACGAAGCUG
Procedure, shortened: as §1

biotinyl-Trp-oxazolone = assay: self-aminoacylation, catalytic enhancement (BWO) (fold over background); higher = more active; k-Seq, kA / k0A0; sequences stand for … in GGGAAUGGAUCCACAUCUACGAAUUC…UUCACUGCAGACUUGACGAAGCUG
Procedure, shortened: as §1

Row | Sequence | self-aminoacylation (biotinyl-Ile-oxazolone) | self-aminoacylation (biotinyl-Met-oxazolone) | self-aminoacylation (biotinyl-Phe-oxazolone) | self-aminoacylation (biotinyl-Leu-oxazolone) | self-aminoacylation (biotinyl-Val-oxazolone) | self-aminoacylation (biotinyl-Trp-oxazolone)
1 | CUACUUCCAACAAUCAGUCUG [Fam1A.1 aminoacylation ribozyme variant] | 0.742 | 0.636 | 1.06 | 0.703 | 0.746 | 0.705
2 | CUACUUCCAACAAUCGCUCUG [Fam1A.1 aminoacylation ribozyme variant] | 0.894 | 0.711 | 0.675 | 0.858 | 0.71 | 0.5
3 | CUACUUCCAACAAUCGGUCUU [Fam1A.1 aminoacylation ribozyme variant] | 1.01 | 0.764 | 0.787 | 0.843 | 0.813 | 0.435
4 | CUACUUCGAACAAUCGAUCUG [Fam1A.1 aminoacylation ribozyme variant] | 0.7 | 0.424 | 0.525 | 0.648 | 0.645 | 0.41
5 | CUACUUCUAACAAACGGUCUG [Fam1A.1 aminoacylation ribozyme variant] | 0.768 | 0.565 | 0.566 | 0.532 | 0.688 | 0.559
6 | CUACUUCUAACAAUCGGCCUG [Fam1A.1 aminoacylation ribozyme variant] | 1.09 | 0.997 | 1.01 | 1.31 | 1.2 | 1.05
7 | CUACUUCUAACAAUCGGGCUG [Fam1A.1 aminoacylation ribozyme variant] | 0.945 | 1.05 | 0.537 | 0.85 | 1.23 | 0.88
8 | CUACUUCUAGCAAUCGGUCUG [Fam1A.1 aminoacylation ribozyme variant] | 0.759 | 0.753 | 0.603 | 0.759 | 0.677 | 0.542
9 | CUACUUCUCACAAUCGGUCUG [Fam1A.1 aminoacylation ribozyme variant] | 0.69 | 0.563 | 0.575 | 0.665 | 0.711 | 0.711
10 | CUACUUGAAACAAUCGGUCUA [Fam1A.1 aminoacylation ribozyme variant] | 0.845 | 0.822 | 0.803 | 0.784 | 0.726 | 0.787
11 | CUACUUUAAACAAUCGGUCUA [Fam1A.1 aminoacylation ribozyme variant] | 0.832 | 1.09 | 1.15 | 0.763 | 0.781 | 0.713
12 | CUACUUUAAACAAUCGUUCUG [Fam1A.1 aminoacylation ribozyme variant] | 0.644 | 0.571 | 0.59 | 0.612 | 0.698 | 0.469
13 | CUACUUUAAACAAUGGGUCUG [Fam1A.1 aminoacylation ribozyme variant] | 1.18 | 1.27 | 0.872 | 1.05 | 0.966 | 1.22
14 | CUAGGUCAAACAAUCGGUCUG [Fam1A.1 aminoacylation ribozyme variant] | 1.01 | 0.966 | 1.3 | 0.786 | 0.865 | 1.16
15 | CUAGUUCAAACAAUCUGUCUG [Fam1A.1 aminoacylation ribozyme variant] | 0.866 | 0.702 | 0.903 | 0.79 | 0.733 | 0.812
16 | CUAGUUCAAACUAUCGGUCUG [Fam1A.1 aminoacylation ribozyme variant] | 1.25 | 1.25 | 1.05 | 1.21 | 1.04 | 1.16
17 | CUAGUUCAUACAAUCGGUCUG [Fam1A.1 aminoacylation ribozyme variant] | 0.83 | 0.847 | 0.871 | 0.812 | 0.823 | 0.672
18 | CUAGUUCGAACAAUCGGUCUG [Fam1A.1 aminoacylation ribozyme variant] | 0.938 | 0.892 | 1.06 | 0.939 | 0.715 | 0.761
19 | CUAUUUCAAACAAUCUGUCUG [Fam1A.1 aminoacylation ribozyme variant] | 0.786 | 0.638 | 1.3 | 0.653 | 0.804 | 0.623
20 | CUCCUUCAGACAAUCGGUCUG [Fam1A.1 aminoacylation ribozyme variant] | 0.994 | 1.07 | 1.02 | 1.23 | 1.11 | 0.922
21 | CUCCUUCCAACAAUCGGUCUG [Fam1A.1 aminoacylation ribozyme variant] | 1.03 | 0.84 | 1.43 | 0.948 | 0.876 | 1.31
22 | CUCCUUCUAACAAUCGGUCUG [Fam1A.1 aminoacylation ribozyme variant] | 0.634 | 0.541 | 0.914 | 0.508 | 0.651 | 0.718
23 | CUGCUUAAAACAAUCGGUCUG [Fam1A.1 aminoacylation ribozyme variant] | 0.822 | 0.878 | 0.878 | 0.92 | 0.874 | 0.982
